PubChem BioAssay AID602196, INSERM – 2012
In all, the deposit lists about 23,000 reagents; shown is an unselected part. In the full data, 455 (2%) were called active. 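Active includes both protection and sensitisation; some change values fall well beyond the stated -50 to +50 range.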 A number with no mark means an inactive call. Further read-outs or replicates are left out here. Not given: the amount of reagent.

- Aim: 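Knock-downs that protect lung cancer cells from cisplatin or sensitise them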
- Cell system: human A549 lung cancer cells
- Reagent: siRNA pair against human genes
- Time to read-out: 48 h transfection before cisplatin; time from cisplatin to read-out not stated
- Challenge: cisplatin at a dose killing half of control-siRNA cells; exact dose and duration not given
- Measurement: 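Cisplatin cell death as a shift from the 50% death seen with control siRNA; siRNAs toxic or growth-blocking alone scored 0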
- Reading the numbers: two-siRNA summed score (-2 to +2): higher = both siRNAs protect from cisplatin killing; -2 means both sensitise; mean protection from cisplatin (shift in death): higher = protection from cisplatin killing
- Hit rule: 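Each siRNA scores 0 if harmful alone by LDH or WST-1, otherwise +1 if it reduces and -1 if it increases cisplatin killing; a gene is active when both siRNAs agree (sum +2 or -2)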
- Meaning of the calls: active = both siRNAs shift cisplatin killing the same way; inactive = no consistent shift, or siRNA harmful alone

With knock-down of CDC25B, the screen gave two-siRNA summed score (-2 to +2) = 1; mean protection from cisplatin (shift in death) (%) = 13.7.
Against LRRC23, the entry reads two-siRNA summed score (-2 to +2) = 0; mean protection from cisplatin (shift in death) (%) = 3.5.
Knock-down of INA resulted in: two-siRNA summed score (-2 to +2) = 1; mean protection from cisplatin (shift in death) (%) = 8.8.
SNHG32 showed two-siRNA summed score (-2 to +2) = 0; mean protection from cisplatin (shift in death) (%) = 9.4.
Against SIRT6, the entry reads two-siRNA summed score (-2 to +2) = 0; mean protection from cisplatin (shift in death) (%) = -27.3.
GJB1 scored two-siRNA summed score (-2 to +2) = 0; mean protection from cisplatin (shift in death) (%) = -7.1.
After knock-down of LOC387720 (retired record), the screen gave two-siRNA summed score (-2 to +2) = 1; mean protection from cisplatin (shift in death) (%) = 17.2.
AMMECR1L scored two-siRNA summed score (-2 to +2) = 0; mean protection from cisplatin (shift in death) (%) = -9.6.
TRHR scored two-siRNA summed score (-2 to +2) = 0; mean protection from cisplatin (shift in death) (%) = -8.8.
Silencing of RARB resulted in: two-siRNA summed score (-2 to +2) = 0; mean protection from cisplatin (shift in death) (%) = -3.5.
A2ML1 gave two-siRNA summed score (-2 to +2) = 0; mean protection from cisplatin (shift in death) (%) = -1.8.
CSTF1 gave two-siRNA summed score (-2 to +2) = 0; mean protection from cisplatin (shift in death) (%) = 12.
NFATC1 gave two-siRNA summed score (-2 to +2) = 0; mean protection from cisplatin (shift in death) (%) = -3.2.
USP27X-DT showed two-siRNA summed score (-2 to +2) = 0; mean protection from cisplatin (shift in death) (%) = 5.
FAM9A showed two-siRNA summed score (-2 to +2) = 0; mean protection from cisplatin (shift in death) (%) = 6.3.
With knock-down of PPP1R9B, the record shows two-siRNA summed score (-2 to +2) = 0; mean protection from cisplatin (shift in death) (%) = 6.8.
PCK1 gave two-siRNA summed score (-2 to +2) = 0; mean protection from cisplatin (shift in death) (%) = -0.4.
Depletion of PPP4R1 came out at: two-siRNA summed score (-2 to +2) = 0; mean protection from cisplatin (shift in death) (%) = 2.8.
Knock-down of LINC02145 resulted in: two-siRNA summed score (-2 to +2) = 0; mean protection from cisplatin (shift in death) (%) = 5.5.
Knock-down of CIMAP1C came out at: two-siRNA summed score (-2 to +2) = 1; mean protection from cisplatin (shift in death) (%) = 13.6.
For MYL6B, the entry reads two-siRNA summed score (-2 to +2) = 0; mean protection from cisplatin (shift in death) (%) = 14.8.

3 entries from above, reformatted:
target | two-siRNA summed score (-2 to +2) | mean protection from cisplatin (shift in death) (%)
TRHR | 0 | -8.8
RARB | 0 | -3.5
A2ML1 | 0 | -1.8
